Laboratory results reported in paper doi:10.1101/2024.09.02.610768 (bioRxiv, 2024).
These are yes or no findings as the source states them, for the method shown. Some entries that bind do so weakly or less than the wild type.

Target: FrzCD^ΔH2 (Myxococcus xanthus) (UniProt P43500)
Experiment: SEC-MALS

binding: binds
B1: FrzCD^ΔH2 (receptor, Myxococcus xanthus, UniProt P43500 1-417, looked up)
chain: MSLDTPNEKPAGKARARKAPASKAGATNAASTSSSTKAITDTLLTVLSGNLQARVPKELVGESGVELAHLLNQVLDQFAASEHVREINEAALRLSSSANQVLAASTQHETSSTEQAAAIHETTATMEELKHASAQIAENAGSVARVAEETLGAARAGRGAIGEFIQAMQQIRSDGVAVADSIAKLSKRVERIGTVVEVIDEIADRSDLLALNAALEGSRAGEAGKGFSIVAAEMRRLAENVLDSTKEIKNLITEIREATAAAAGAAEASKSATESGEKLGAVAAQAVEGILAGVQETSDAARVINLATQQQRTATEQVVASMAEIEDVTRQTTQASKQATGAAAELTQLAGRLAELIKRFKAD
